No constants are given. Whether binding was seen depends on the method and setting. Binding can be weak; no strength is given.
Experiments:
[1] = molecular target: T1, C-reactive protein (UniProt P02741); experiment: ELISA; dose-response: same solid-phase protocol, 1 μg mammalian protein coated, increasing quantities of His-tagged pneumococcal protein from 0.8 to 200 pmoles per well; BSA as control; both purified
T1 sequence: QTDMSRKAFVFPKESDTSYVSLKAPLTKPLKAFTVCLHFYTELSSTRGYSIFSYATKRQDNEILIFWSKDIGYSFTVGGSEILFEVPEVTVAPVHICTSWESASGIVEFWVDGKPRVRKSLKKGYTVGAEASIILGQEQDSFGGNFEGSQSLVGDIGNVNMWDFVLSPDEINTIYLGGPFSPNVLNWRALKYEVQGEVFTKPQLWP

Amino acid sequences for entries named in this document (tags omitted). A change or cut given only in a name is not applied to a line headed by its entry.
UniProt Q8DP99: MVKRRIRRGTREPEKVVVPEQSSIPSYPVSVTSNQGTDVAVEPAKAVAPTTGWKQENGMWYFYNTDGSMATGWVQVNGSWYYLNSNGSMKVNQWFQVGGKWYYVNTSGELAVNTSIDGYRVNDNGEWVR

[2] = molecular target: T1, C-reactive protein; experiment: ELISA; solid-phase screen: 1 μg mammalian protein in 100 μL PBS pH7.0 coated on white 96 well plates overnight at 4°C; saturation 1 h with PBS 2% BSA; 200 pmole His-Tagged pneumococcal protein in 100 μL PBS for two hours at room temperature; washes PBS, Tween 0,03%; anti His-HRP antibody, ECL luminescence; positive = twice the BSA negative control in the majority of at least 3 independent experiments; both purified

For CbpM (from UniProt Q8DP99), the binding [1] was “binds” and the binding [2] was “binds”.
With CbpL the binding [1] was “binds” and the binding [2] was “binds”.

Source: paper PMC2911433
